According to paper PMC6651876, “PEA-15 C-Terminal Tail Allosterically Modulates Death-Effector Domain Conformation and Facilitates Protein–Protein Interactions” (International Journal of Molecular Sciences, 2019):
These are yes or no findings as the source states them, for the method shown. Some entries that bind do so weakly or less than the wild type.

Chains of the proteins cited; added tags and fusions are not shown. Lines headed by an entry give the natural chain unless they say otherwise; changes in a name come on top.
UniProt Q15121: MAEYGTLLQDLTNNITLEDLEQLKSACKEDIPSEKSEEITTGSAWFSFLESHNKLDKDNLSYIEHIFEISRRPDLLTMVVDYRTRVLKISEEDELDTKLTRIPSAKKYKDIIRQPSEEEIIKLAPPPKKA
UniProt Q13158: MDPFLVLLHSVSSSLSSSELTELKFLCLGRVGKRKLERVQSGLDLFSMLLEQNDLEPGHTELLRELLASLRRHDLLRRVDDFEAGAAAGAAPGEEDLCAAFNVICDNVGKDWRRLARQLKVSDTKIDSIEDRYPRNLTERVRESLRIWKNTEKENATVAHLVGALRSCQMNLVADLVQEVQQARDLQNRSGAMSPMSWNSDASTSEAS

Molecular target: T1, PEA-15 S104D/S116D double mutant (PEA-15DD) (UniProt Q15121 1-130, S104D | S116D)
T1 construct: PEA-15 (phosphoprotein enriched in astrocytes, 15 kDa), full length, with the phosphomimetic mutations S104D and S116D; Made by site-directed mutagenesis of the PEA-15 plasmid (pET-28b); expressed and purified as the wild type
Experiment: NMR titration; 2D HSQC of uniformly labeled PEA-15DD with unlabeled FADD at 1:1 molar ratio, against free PEA-15DD (0.7 mM); 20 mM sodium phosphate pH 7.0, 150 mM NaCl, 1 mM DTT, 25 °C; both purified

Fas-associated death domain (FADD) protein, full length (from UniProt Q13158 1-208)
binding: binds
